According to patent publication US20250145646A1, “MACROCYCLIC COMPOUNDS AND DIAGNOSTIC USES THEREOF” (JANSSEN BIOTECH, INC., priority 2021, published 2025):

Test: Chelation test with La3+ (HPLC retention time shift)
Type: physicochemical
Settings: subsequent to mixing with La^3+

CC(C)CCC(c1cccc(C(=O)O)n1)N1CCOCCOCCN(Cc2cccc(C(=O)O)n2)CCOCCOCC1 (centres unmarked) [TOPA-[C7]-isopentyl, 6-((16-(1-(6-carboxypyridin-2-yl)-4-methylpentyl)-1,4,10,13-tetraoxa-7,16-diazacyclooctadecan-7-yl)methyl)picolinic acid]
chelation of La^3+ indicated by shift in HPLC retention time: rapid chelation of La^3+

O=C(O)c1cccc(CN2CCOCCOCCN(C(c3ccccc3)c3cccc(C(=O)O)n3)CCOCCOCC2)n1 (centres unmarked) [TOPA-[C7]-phenyl, 6-((16-((6-carboxypyridin-2-yl)(phenyl)methyl)-1,4,10,13-tetraoxa-7,16-diazacyclooctadecan-7-yl)methyl)picolinic acid]
chelation of La^3+ indicated by shift in HPLC retention time: rapid chelation of La^3+
